No constants are given. Whether binding was seen depends on the method and setting. Some results given as binding are weak or reduced against the parent protein; the word gives no strength.
Biological target: T1, casein kinase II alpha subunit (Drosophila (endogenous in embryos)) (UniProt P08181)
T1 sequence: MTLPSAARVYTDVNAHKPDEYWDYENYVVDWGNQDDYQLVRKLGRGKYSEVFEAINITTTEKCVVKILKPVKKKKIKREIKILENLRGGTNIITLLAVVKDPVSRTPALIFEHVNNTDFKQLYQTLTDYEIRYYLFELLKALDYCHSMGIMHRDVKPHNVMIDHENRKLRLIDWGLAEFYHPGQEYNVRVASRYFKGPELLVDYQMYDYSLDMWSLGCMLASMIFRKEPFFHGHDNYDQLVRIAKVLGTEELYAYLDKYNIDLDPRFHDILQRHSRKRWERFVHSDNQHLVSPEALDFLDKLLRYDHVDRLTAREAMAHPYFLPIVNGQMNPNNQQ
Experiment: SEC; analytical gel filtration of the peak fraction of PSI kinase activity purified from Drosophila embryo nuclear extract; data not shown; both purified

By UniProt entry, the sequences of proteins in these tests, tags left out.
UniProt P08182: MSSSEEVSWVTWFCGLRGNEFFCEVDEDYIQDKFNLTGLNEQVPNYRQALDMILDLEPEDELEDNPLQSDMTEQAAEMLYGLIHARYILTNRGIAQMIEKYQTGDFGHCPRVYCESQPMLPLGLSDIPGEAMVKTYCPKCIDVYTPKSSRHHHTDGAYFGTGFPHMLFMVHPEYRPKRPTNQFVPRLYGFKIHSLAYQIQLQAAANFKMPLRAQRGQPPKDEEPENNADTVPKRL

casein kinase II beta subunit (from UniProt P08182 1-235)
binding: binds

Source: publication PMC3577899
